Assay results published in PubChem BioAssay AID651768 (National Center for Advancing Translational Sciences (NCATS), 2012).
The campaign covered roughly 360,000 compounds. About 1,700 (0.47%) were called active. This list was built around the results that the source calls inconclusive (neither active nor inactive); the mix of calls is not that of the screen. Calls come from the whole dose curve; as a rule, active = well fitted inhibition curve with a large enough effect; inconclusive = small, poorly fitted or top-dose-only effect; inactive = no such curve, though single readings can be large or run the other way. A potency beside an inconclusive call is a rough fit, not a confirmed value.
% is set by controls: 0 for no effect and ±100 for the full control effect; potency is the fitted concentration of half-maximal effect.
Note: nearly all actives have a fitted effect of over 55% in size.

Amino acid sequences for entries named in this document (tags omitted).
UniProt Q14191, whole entry, looked up: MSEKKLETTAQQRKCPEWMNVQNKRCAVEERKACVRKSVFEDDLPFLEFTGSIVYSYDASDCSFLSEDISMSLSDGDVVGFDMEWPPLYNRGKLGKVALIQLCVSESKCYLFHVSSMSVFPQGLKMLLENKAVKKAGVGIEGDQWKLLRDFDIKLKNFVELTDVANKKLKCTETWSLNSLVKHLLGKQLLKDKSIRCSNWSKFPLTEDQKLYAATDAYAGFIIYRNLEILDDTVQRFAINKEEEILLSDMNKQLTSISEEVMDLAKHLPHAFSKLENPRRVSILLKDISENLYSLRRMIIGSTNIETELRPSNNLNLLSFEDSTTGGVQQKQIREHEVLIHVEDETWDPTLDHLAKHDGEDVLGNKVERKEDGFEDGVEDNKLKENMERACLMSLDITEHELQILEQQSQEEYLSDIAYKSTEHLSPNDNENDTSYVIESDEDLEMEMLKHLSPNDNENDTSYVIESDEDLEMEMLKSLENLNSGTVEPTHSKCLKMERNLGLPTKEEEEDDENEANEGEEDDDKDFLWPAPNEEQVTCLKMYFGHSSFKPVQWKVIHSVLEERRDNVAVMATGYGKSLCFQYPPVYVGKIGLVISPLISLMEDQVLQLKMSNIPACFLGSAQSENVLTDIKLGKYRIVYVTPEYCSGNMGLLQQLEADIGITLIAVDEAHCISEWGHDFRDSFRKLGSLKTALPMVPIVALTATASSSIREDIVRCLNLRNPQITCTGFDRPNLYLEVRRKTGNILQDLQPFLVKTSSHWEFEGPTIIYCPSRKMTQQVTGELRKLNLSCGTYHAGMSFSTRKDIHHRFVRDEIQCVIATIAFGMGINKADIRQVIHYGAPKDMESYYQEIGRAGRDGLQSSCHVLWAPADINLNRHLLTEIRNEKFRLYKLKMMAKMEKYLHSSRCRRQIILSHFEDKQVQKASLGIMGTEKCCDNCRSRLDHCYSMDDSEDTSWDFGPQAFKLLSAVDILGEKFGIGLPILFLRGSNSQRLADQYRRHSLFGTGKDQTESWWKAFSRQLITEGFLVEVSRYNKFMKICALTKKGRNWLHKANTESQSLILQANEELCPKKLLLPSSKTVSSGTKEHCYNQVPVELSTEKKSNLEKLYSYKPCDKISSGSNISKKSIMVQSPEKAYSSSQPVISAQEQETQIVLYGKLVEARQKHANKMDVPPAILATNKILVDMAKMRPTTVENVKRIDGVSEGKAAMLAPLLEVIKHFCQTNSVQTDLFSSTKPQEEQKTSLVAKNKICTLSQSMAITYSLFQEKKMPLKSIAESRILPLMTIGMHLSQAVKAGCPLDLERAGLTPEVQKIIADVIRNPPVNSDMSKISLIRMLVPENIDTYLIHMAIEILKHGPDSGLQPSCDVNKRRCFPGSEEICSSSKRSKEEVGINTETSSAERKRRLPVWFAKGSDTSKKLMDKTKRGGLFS

These compounds were tested against Bifunctional 3'-5' exonuclease/ATP-dependent helicase WRN (Homo sapiens) (UniProt Q14191) (assay: qHTS for Inhibitors of WRN Helicase). Settings: WRN helicase unwinding, fluorescent forked duplex, kinetic; activity change, negative = inhibition: at 114 µM (top of the series) unless noted.
Procedure, shortened: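 Fluorescence dequenching readout, ex 525 nm/em 598 nm, kinetic mode: forked duplex DNA (100 nM final) with adjacent fluorophore and quencher unwound by WRN (20 nM final) with 2 mM ATP. Compound preincubation 15 min, room temperature.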
With `Oc1c(Br)cc(/C=N/n2c(-c3ccccc3)n[nH]c2=S)cc1Br` the Potency was inconclusive: 10 µM [inhibitor, full curve]. `O=C(O)c1ccc2nc(-c3ccco3)c(-c3ccco3)nc2c1` was tested, and the Potency was inconclusive: 2.67 µM [inhibitor, partial curve]. In the case of `CCOc1cc(/C=C2/C(=O)N(c3ccccc3)N=C2C)ccc1OC(=O)c1ccco1`, the Potency is reported as inconclusive: 79.4 µM [inhibitor, partial curve]. In the case of `N#C/C(=C\c1ccc(-c2ccc(C(=O)O)cc2)o1)c1nc2ccccc2[nH]1`, the Potency is reported as inconclusive: 15.8 µM [inhibitor, partial curve]. For `O=C(Nc1nc2ccccc2s1)C1CCN(S(=O)(=O)c2cc([N+](=O)[O-])ccc2Cl)CC1`, the activity change, negative = inhibition was inactive: -9.39% [at 11.6 µM]. With `CCc1sc(C(=O)Nc2ccc(N3CCOCC3)cc2)cc1C` the Potency was “inactive”. In the case of `Cc1nnc(C)n1/N=C/c1cc(Br)cc(Br)c1O`, the Potency is reported as inconclusive: 50.1 µM [inhibitor, partial curve]. In the case of `O=C(O)c1ccc(N=Nc2c(O)ccc3ncccc23)cc1`, the Potency is reported as inconclusive: 56.2 µM [inhibitor, partial curve]. For `C=C(C)C(=O)N1CC2(CC(c3cccc(NC(=O)/C=C\C=C/C)c3)=NO2)C[C@H]1C(N)=O` (stereo not given in full), the Potency was inconclusive: 50.1 µM [inhibitor, partial curve]. In the case of `Cc1cc(=O)oc2cc(NC(=S)NNC(=O)c3c(Cl)cnn3C)ccc12`, the Potency is reported as inconclusive: 56.2 µM [inhibitor, partial curve]. In the case of `ON=C1/C(=N\O)CC2(C/C1=N/O)OCCO2`, the Potency is reported as inconclusive: 50.1 µM [inhibitor, partial curve]. With `CC(=O)Nc1ccccc1C(F)(F)F` the Potency was “inactive”. `CCn1nc([N+](=O)[O-])c2c(-c3nc4ccccc4o3)c(N)n(CCCOC)c2c1=O` was tested, and the Potency was active: 31.6 µM. In the case of `O=C1/C(=C/c2ccc(C(=O)O)cc2)CCC/C1=C\c1ccc(C(=O)O)cc1`, the Potency is reported as “inactive”. In the case of `O=C(CCNC(=O)c1ccc([N+](=O)[O-])cc1)NCCc1ccccc1`, the Potency is reported as “inactive”. For `CC(=O)n1cc([C@@H]2C=C(C(=O)NCc3ccccc3)O[C@H](OCc3ccc(CO)cc3)C2)c2ccccc21`, the Potency was “inactive”. `COc1cc(C(=O)NC2CCN(C)CC2)ccc1Nc1ncc2c(n1)N(Cc1ccccc1)CCC(=O)N2C` was tested, and the Potency was “inactive”. `c1ccc2c(Nc3ccc4c(c3)OCCO4)c3c(nc2c1)CCC3` was tested, and the Potency was “inactive”. In the case of `Cn1c(O)c(N=Nc2ccccc2[N+](=O)[O-])c2ccccc21`, the Potency is reported as inconclusive: 10 µM [inhibitor, full curve]. For `CCCCC(=O)NC(c1ccc(N(C)C)cc1)c1ccc2cccnc2c1O` (stereo not given), the Potency was “inactive”. For `O=C(CCS(=O)(=O)c1ccccc1)Nc1ccc(S(=O)(=O)Nc2nccs2)cc1`, the Potency was inconclusive: 20 µM [inhibitor, full curve, poor fit]. In the case of `Cc1nc2c(nnn2Cc2ccccc2)c(=O)[nH]1`, the Potency is reported as inconclusive: 79.4 µM [inhibitor, single point]. `CC(C)c1ccc(NC(=O)/C(C#N)=C/c2ccncc2)cc1` was tested, and the Potency was inconclusive: 28.2 µM [inhibitor, full curve, poor fit]. `CC1(C(=O)Nc2ccc3ccccc3c2)CC1(Br)Br` (stereo not given) was tested, and the Potency was inconclusive: 89.1 µM [inhibitor, single point]. With `COCCN(C(=O)c1ccc(C)c(S(=O)(=O)N2CCOCC2)c1)c1c(N)n(CC(C)C)c(=O)[nH]c1=O` the Potency was inconclusive: 10 µM [inhibitor, partial curve]. For `CC(=O)Nc1ccc(N2C(=O)c3cccc4c(O)ccc(c34)C2=O)cc1`, the Potency was active: 50.1 µM. `Cc1ccc(SC2=C(Sc3ccc(C)cc3)C(=O)c3ccccc3C2=O)cc1` was tested, and the Potency was active: 79.4 µM. `Cc1cccc(C(=O)Nc2ccc(C(=O)/C=C/c3cccnc3)cc2)c1` was tested, and the Potency was inconclusive: 31.6 µM [inhibitor, single point]. For `O=C(O)c1ccccc1-c1ccccc1C(=O)Nc1ccc2c(c1)C(=O)c1ccccc1-2`, the Potency was inconclusive: 50.1 µM [inhibitor, partial curve]. With `Cc1ccc(-c2csc(/C(C#N)=C(\O)CN3CCN(C(=O)c4ccco4)CC3)n2)cc1` the Potency was inconclusive: 50.1 µM [inhibitor, partial curve]. With `O=C(CSc1ccc2nnc(CCNC(=O)c3ccccc3)n2n1)NC1CCCC1` the Potency was inconclusive: 89.1 µM [inhibitor, single point]. In the case of `CCN(CC)c1ccc(/C=C(\C#N)C(N)=O)cc1`, the Potency is reported as “inactive”. `O=C1CC(=O)N(Cc2ccco2)C(=S)N1` was tested, and the Potency was active: 10 µM. In the case of `Cc1cc(=O)oc2cc(OS(C)(=O)=O)ccc12`, the Potency is reported as inconclusive: 25.1 µM [inhibitor, single point]. `Cc1ccc2nc(NC(=O)C3CCN(S(=O)(=O)c4cc([N+](=O)[O-])ccc4Cl)CC3)sc2c1` was tested, and the Potency was inconclusive: 12.6 µM [inhibitor, partial curve]. `COc1ccc(NC2CCCN(C(=O)c3cc(CC(C)C)nc(N)n3)C2)cc1` (stereo not given) was tested, and the Potency was “inactive”. For `COc1ccc(S(=O)(=O)N2CCN(C(=O)/C=C/c3ccco3)CC2)cc1`, the activity change, negative = inhibition was inactive: -5.26% [at 11.6 µM]. In the case of `CC(=O)c1ccc(OCc2cn(CC(=O)c3ccc(O)cc3)nn2)c(C)c1`, the Potency is reported as “inactive”. With `O=C(/C=C/c1ccco1)Oc1cc(Br)cc(/C=N/NC(=O)c2ccccc2O)c1` the Potency was inconclusive: 12.6 µM [inhibitor, partial curve]. In the case of `Cc1cc2oc3ccc(NCCCN4CCOCC4)cc3c(=O)c2cc1C`, the Potency is reported as “inactive”. In the case of `COc1ccc(NC(=O)c2cccc(S(=O)(=O)N3CCCC3)c2)cc1OC`, the Potency is reported as inconclusive: 28.2 µM [inhibitor, full curve, poor fit]. In the case of `CC1(C)C(/C=C/C=C/C=C/C=C2\N(CCCCS(=O)(=O)O)c3ccc4ccccc4c3C2(C)C)=[N+](CCCCS(=O)(=O)[O-])c2ccc3ccccc3c21`, the Potency is reported as active: 44.7 µM. With `COc1cccc(NC(=O)CSC(N)=O)c1` the Potency was inconclusive: 50.1 µM [inhibitor, partial curve]. `c1cc2nc(C34CC5CC(CC(C5)C3)C4)[nH]c2cn1` was tested, and the Potency was “inactive”. `O=C(CCC1N=C2c3ccccc3N=C(SCC(=O)NCc3ccco3)N2C1=O)NCc1ccco1` (stereo not given) was tested, and the Potency was inconclusive: 35.5 µM [inhibitor, full curve, poor fit].
